# Experimental data: the supplement of paper PMC7666118
# Protein sequences, listed by entry. Tags and fused reporters are not part of them. Lines headed by an entry give the natural chain unless they say otherwise; changes in a name come on top.
# UniProt O43765: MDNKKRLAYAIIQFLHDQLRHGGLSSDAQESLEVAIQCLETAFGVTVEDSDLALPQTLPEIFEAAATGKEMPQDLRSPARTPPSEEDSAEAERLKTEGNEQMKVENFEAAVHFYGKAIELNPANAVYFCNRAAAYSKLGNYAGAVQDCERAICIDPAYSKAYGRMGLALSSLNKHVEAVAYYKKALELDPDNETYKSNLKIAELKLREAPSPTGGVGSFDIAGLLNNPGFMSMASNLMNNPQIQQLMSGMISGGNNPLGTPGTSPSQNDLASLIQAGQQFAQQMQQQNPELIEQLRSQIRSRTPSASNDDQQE
# UniProt O15431: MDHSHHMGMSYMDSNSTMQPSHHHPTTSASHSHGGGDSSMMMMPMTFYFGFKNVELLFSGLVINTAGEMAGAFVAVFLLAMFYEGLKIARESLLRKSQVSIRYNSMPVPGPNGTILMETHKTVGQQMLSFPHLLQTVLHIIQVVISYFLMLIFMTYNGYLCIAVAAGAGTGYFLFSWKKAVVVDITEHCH
# UniProt O15047, whole entry: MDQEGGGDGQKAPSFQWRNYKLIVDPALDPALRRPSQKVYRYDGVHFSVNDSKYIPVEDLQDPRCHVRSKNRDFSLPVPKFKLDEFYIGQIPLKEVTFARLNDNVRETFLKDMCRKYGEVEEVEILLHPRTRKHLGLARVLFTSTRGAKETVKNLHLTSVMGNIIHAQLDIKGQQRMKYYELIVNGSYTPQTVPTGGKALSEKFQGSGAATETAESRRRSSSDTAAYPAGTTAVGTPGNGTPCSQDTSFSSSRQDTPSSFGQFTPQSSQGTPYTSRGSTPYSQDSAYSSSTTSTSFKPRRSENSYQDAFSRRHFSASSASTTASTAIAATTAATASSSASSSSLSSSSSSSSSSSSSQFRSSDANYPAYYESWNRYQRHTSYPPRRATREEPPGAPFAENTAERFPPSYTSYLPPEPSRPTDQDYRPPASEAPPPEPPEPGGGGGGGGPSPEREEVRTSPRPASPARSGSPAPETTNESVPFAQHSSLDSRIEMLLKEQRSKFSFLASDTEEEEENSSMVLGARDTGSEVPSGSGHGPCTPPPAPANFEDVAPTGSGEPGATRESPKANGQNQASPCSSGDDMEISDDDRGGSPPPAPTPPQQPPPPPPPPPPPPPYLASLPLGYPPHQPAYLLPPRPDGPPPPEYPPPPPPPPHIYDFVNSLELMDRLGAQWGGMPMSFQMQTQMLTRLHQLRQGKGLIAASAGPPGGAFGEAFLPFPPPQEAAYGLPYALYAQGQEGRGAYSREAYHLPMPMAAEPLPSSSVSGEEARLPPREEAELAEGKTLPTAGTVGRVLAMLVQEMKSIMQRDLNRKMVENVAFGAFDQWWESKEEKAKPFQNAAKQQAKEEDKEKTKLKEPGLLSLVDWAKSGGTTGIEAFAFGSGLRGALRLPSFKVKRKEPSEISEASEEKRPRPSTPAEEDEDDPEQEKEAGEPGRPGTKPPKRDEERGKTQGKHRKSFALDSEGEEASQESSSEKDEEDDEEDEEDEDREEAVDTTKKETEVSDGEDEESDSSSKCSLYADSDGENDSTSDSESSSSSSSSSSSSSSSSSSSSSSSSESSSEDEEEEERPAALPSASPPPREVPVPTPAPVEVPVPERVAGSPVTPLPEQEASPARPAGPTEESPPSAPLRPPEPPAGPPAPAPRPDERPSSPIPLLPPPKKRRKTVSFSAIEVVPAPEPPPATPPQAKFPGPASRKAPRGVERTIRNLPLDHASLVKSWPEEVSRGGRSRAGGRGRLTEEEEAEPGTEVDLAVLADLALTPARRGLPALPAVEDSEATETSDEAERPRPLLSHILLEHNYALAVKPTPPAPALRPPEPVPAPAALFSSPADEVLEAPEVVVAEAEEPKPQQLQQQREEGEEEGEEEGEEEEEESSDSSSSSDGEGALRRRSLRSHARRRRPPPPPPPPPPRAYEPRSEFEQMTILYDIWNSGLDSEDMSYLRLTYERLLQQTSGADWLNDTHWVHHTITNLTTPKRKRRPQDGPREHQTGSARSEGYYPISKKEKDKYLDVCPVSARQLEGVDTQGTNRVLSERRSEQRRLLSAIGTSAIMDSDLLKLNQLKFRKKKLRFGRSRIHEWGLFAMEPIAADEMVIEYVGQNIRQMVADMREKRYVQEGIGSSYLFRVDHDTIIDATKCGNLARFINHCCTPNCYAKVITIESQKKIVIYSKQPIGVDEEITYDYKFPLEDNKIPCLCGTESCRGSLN
# UniProt Q6KCM7: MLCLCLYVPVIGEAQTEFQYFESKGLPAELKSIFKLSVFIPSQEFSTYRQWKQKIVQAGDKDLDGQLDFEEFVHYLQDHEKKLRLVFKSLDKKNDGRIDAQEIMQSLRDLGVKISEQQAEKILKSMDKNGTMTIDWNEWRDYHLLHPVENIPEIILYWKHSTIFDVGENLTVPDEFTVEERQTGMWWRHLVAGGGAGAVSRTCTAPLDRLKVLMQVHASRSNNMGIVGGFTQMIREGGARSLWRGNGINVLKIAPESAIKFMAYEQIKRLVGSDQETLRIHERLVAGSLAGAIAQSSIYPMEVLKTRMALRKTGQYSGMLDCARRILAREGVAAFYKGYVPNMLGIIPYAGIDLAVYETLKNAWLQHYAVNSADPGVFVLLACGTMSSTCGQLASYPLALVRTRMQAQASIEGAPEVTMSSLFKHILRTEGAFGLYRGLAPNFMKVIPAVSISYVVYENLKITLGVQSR
# UniProt P22732: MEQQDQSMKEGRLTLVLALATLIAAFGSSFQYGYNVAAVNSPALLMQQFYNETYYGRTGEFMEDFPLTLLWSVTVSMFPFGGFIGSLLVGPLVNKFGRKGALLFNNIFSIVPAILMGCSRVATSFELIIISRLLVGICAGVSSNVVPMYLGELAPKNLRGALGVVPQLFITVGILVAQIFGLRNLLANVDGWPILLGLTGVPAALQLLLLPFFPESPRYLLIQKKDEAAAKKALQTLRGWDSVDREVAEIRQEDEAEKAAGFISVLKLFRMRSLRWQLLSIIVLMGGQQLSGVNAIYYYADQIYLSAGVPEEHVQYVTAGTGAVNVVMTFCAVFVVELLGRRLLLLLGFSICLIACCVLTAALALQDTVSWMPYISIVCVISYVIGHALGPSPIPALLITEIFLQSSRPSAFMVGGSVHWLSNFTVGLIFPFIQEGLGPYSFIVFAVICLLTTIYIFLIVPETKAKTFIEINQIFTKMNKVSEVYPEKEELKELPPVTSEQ
# UniProt Q96CQ1: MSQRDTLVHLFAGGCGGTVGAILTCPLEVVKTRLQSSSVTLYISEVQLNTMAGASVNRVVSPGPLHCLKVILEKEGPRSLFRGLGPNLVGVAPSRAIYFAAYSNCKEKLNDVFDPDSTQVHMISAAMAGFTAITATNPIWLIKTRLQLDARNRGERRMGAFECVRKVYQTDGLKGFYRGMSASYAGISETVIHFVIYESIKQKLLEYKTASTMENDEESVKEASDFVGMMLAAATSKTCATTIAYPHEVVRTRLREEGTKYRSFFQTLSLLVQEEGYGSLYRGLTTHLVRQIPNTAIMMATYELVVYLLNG
# UniProt P78382: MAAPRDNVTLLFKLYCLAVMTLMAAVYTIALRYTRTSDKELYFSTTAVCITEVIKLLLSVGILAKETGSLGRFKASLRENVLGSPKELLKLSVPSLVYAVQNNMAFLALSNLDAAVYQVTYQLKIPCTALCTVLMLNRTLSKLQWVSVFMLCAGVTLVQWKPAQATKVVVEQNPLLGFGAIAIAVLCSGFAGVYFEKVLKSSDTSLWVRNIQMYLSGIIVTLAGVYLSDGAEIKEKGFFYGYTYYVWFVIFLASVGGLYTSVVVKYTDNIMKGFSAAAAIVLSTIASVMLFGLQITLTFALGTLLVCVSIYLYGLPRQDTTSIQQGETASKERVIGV
# UniProt Q9Y3B4: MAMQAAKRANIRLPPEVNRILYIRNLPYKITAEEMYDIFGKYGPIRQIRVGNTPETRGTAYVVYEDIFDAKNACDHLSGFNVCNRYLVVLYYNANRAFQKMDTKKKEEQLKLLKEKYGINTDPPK
# UniProt Q16629: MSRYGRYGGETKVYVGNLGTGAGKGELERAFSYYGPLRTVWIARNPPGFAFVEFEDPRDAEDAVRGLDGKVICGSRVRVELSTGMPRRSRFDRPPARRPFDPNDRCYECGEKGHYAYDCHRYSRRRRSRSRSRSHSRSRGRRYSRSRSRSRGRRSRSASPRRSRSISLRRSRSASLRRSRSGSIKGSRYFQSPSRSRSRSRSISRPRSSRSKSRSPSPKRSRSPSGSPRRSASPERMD
# UniProt Q6P1M0: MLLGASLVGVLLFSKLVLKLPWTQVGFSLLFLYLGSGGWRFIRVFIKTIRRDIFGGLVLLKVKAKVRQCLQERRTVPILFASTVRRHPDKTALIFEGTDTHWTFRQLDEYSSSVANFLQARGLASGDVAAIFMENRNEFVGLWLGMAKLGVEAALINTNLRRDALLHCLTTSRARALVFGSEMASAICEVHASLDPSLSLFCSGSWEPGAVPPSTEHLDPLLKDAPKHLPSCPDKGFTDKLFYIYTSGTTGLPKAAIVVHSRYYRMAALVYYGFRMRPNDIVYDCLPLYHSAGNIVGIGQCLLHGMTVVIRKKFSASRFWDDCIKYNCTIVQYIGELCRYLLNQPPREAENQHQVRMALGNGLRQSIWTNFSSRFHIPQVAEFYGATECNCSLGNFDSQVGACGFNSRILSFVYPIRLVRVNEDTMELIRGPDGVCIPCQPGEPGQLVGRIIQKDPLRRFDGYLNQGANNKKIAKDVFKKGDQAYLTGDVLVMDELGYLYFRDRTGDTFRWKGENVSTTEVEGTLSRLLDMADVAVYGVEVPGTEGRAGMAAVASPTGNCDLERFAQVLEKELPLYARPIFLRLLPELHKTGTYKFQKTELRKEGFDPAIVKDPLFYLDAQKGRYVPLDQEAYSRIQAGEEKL
# UniProt Q96EB6: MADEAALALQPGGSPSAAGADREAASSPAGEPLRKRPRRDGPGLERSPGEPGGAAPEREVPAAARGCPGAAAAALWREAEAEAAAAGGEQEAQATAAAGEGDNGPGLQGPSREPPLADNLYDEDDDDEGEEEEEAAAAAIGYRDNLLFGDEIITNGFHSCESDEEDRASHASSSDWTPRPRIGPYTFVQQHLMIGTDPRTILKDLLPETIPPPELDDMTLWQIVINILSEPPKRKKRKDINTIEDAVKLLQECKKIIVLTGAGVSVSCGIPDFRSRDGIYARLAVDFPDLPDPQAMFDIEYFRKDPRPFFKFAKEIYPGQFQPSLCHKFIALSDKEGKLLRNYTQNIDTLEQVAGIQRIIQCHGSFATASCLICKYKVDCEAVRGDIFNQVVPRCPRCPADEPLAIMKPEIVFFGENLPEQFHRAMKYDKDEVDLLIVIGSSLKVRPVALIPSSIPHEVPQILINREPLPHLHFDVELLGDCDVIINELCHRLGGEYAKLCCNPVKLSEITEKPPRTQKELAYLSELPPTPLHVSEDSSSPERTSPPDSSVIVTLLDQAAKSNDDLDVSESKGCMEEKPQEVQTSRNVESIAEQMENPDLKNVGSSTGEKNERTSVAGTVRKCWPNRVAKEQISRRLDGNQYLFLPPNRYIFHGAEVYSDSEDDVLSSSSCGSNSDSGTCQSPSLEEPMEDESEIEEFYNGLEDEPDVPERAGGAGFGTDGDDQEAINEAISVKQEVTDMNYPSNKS
# UniProt Q70HW3: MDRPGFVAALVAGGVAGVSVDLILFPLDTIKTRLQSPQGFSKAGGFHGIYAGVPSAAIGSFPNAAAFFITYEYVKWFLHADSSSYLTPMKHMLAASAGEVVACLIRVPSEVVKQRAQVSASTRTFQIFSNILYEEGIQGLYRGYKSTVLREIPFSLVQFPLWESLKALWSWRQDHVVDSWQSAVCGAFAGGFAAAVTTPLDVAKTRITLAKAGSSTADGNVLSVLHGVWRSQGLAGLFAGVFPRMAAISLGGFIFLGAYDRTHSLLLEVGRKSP
# UniProt P53794: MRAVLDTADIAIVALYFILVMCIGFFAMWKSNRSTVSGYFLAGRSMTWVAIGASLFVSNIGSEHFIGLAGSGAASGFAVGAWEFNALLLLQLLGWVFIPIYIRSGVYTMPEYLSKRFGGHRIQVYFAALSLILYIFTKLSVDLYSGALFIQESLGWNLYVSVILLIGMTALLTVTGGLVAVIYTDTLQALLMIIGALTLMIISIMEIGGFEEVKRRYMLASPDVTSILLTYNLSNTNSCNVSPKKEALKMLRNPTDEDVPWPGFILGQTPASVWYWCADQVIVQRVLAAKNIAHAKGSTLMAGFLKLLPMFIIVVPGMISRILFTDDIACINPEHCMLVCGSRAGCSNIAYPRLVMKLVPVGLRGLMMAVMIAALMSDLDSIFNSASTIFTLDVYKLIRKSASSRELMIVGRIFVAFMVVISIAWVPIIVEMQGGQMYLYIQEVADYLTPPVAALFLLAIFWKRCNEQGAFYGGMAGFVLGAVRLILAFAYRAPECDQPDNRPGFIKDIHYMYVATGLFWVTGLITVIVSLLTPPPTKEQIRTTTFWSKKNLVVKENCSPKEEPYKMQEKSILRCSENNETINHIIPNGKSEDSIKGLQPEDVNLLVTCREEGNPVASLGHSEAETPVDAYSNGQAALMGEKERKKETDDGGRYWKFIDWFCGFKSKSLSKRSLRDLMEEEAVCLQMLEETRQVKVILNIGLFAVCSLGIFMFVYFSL
# The list shows a part of the results.
# Compound: COc1ccc(Cn2ccc3ccc(C(=O)NO)cc32)cc1
# Assay: dose-dependent thermal stabilisation call (2D-TPP, DLPTP, 10% FDR) (binary (1 = stabilised)); higher = stabilised by the compound
# Conditions: system: HL-60 intact cells; concentration range 0.04-10 µM
row,Target,dose-dependent thermal stabilisation call
1,SETD7 (UniProt Q8WTS6),inactive: 0
2,SCNM1 (UniProt Q9BWG6),inactive: 0
3,SGTA (UniProt O43765),inactive: 0
4,SLC31A1 (UniProt O15431),inactive: 0
5,SETD1A (UniProt O15047),inactive: 0
6,SLC25A25 (UniProt Q6KCM7),inactive: 0
7,SLC25A19 (UniProt Q9HC21),inactive: 0
8,SLC2A5 (UniProt P22732),inactive: 0
9,SCYL3 (UniProt Q8IZE3),active: 1
10,SLC25A36 (UniProt Q96CQ1),inactive: 0
11,SLAIN2 (UniProt Q9P270),inactive: 0
12,SLC39A8 (UniProt Q9C0K1),inactive: 0
13,SLC30A5 (UniProt Q8TAD4),inactive: 0
14,SFRS11 (UniProt Q05519),inactive: 0
15,SH3GLB2 (UniProt Q9NR46),inactive: 0
16,SLC37A4 (UniProt O43826),inactive: 0
17,SESN2 (UniProt P58004),inactive: 0
18,SF1 (UniProt Q15637),inactive: 0
19,SLC35A1 (UniProt P78382),inactive: 0

# As a short view, some entries already given.
row,Target,dose-dependent thermal stabilisation call
17,SESN2 (UniProt P58004),inactive: 0
18,SF1 (UniProt Q15637),inactive: 0
19,SLC35A1 (UniProt P78382),inactive: 0

# Additional results follow.

row,Target,dose-dependent thermal stabilisation call
1,SLC38A1 (UniProt Q9H2H9),inactive: 0
2,SEPT9 (UniProt Q9UHD8),inactive: 0
3,SFRS5 (UniProt Q13243),inactive: 0
4,SF3B14 (UniProt Q9Y3B4),inactive: 0
5,SFRS7 (UniProt Q16629),inactive: 0
6,SDCCAG10 (UniProt Q6UX04),inactive: 0
7,SLC27A4 (UniProt Q6P1M0),inactive: 0
8,SCAMP4 (UniProt Q969E2),inactive: 0
9,SLC25A15 (UniProt Q9Y619),inactive: 0
10,SCP2 (UniProt P22307),inactive: 0
11,SIPA1 (UniProt Q96FS4),inactive: 0
12,SF3B1 (UniProt O75533),inactive: 0
13,SIRT1 (UniProt Q96EB6),inactive: 0
14,SLC4A7 (UniProt Q9Y6M7),inactive: 0
15,SFRS15 (UniProt O95104),inactive: 0
16,SLC25A26 (UniProt Q70HW3),inactive: 0
17,SASH3 (UniProt O75995),inactive: 0
18,SLC5A3 (UniProt P53794),inactive: 0
